We go through 1 substance from publication PMC11267001.

Results are given in words; binding and its absence hold for the method and conditions named. Some entries that bind do so weakly or less than the wild type.

Assay [1] has as its target human full-length DOCK5 (DOCK5^FL, residues 1-1870) (human) (UniProt Q9H7D0). Description: cryo-EM structure; DOCK5^FL/ELMO1^FL cross-linked with 1 mM BS3 (also a not cross-linked sample at 7.3 Å); 20 mM HEPES-NaOH pH 8.0, 300 mM NaCl, 1 mM TCEP, 0.06% digitonin; both purified.
Assay [2] concerns the target C-terminal truncated DOCK5 (DOCK5^ΔC, residues 1-1642) (human) (UniProt Q9H7D0). Kind of assay: cryo-EM structure; DOCK5^ΔC/ELMO1^FL/Rac1^G15A (0.9 μM) mixed with RhoG^Q61L (15 μM), cross-linked with 1 mM BS3, SEC; 20 mM HEPES-NaOH pH 8.0, 300 mM NaCl, 1 mM TCEP, 0.06% digitonin; both purified.

Regarding “human full-length ELMO1 (ELMO1^FL, residues 1-727) (from UniProt Q92556 1-727)”, the binding result in assay [1] and in assay [2] was “binds” each time.
